Experimental data: PubChem BioAssay AID493246 (Drosophila RNAi Screening Center, 2011)

Aim: 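Genome-wide search for dsRNAs that reduce cell number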 (primary screen)
Cell system: Drosophila Kc and S2R+ cells
Reagent: long dsRNA against Drosophila genes
Read-out: 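Raw, unnormalised count of remaining cells in each well; per-plate z-scores of cell number underlie the calls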
Reading the numbers: Kc cell number and S2R+ cell number: higher = more cells remaining
Active means: 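Active when the per-plate z-score of cell number is 3 or more in the direction of fewer cells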
The screen tested about 21,000 reagents; this is a random part of those that have a named target and a result. In the full data, 429 (2%) are marked active. 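Values are raw and not normalised between plates; calls rest on per-plate z-scores that were not deposited.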 Unmarked entries are inactive. The record does not give: the amount of reagent, the time to read-out.

Cby (Chibby) [DRSC14591]
- Kc cell number, rep 1: 1.30e6
- Kc cell number, rep 2: 1.29e6
- S2R+ cell number, rep 1: 1.07e6
- S2R+ cell number, rep 2: 1.17e6

NimB4 (Nimrod B4) [DRSC01884]
- Kc cell number, rep 1: 1.37e6
- Kc cell number, rep 2: 1.48e6
- S2R+ cell number, rep 1: 1.27e6
- S2R+ cell number, rep 2: 1.12e6

CG9582 [DRSC03267]
- Kc cell number, rep 1: 1.54e6
- Kc cell number, rep 2: 1.58e6
- S2R+ cell number, rep 1: 1.12e6
- S2R+ cell number, rep 2: 1.32e6

TwdlH (TweedleH) [DRSC14735]
- Kc cell number, rep 1: 1.64e6
- Kc cell number, rep 2: 1.77e6
- S2R+ cell number, rep 1: 1.00e6
- S2R+ cell number, rep 2: 1.17e6

CG13055 [DRSC09936]
- Kc cell number, rep 1: 1.33e6
- Kc cell number, rep 2: 1.41e6
- S2R+ cell number, rep 1: 1.22e6
- S2R+ cell number, rep 2: 1.33e6

CG12375 [DRSC02163]
- Kc cell number, rep 1: 1.29e6
- Kc cell number, rep 2: 1.50e6
- S2R+ cell number, rep 1: 4.04e5
- S2R+ cell number, rep 2: 3.52e5

eIF1A (eukaryotic translation initiation factor 1A) [DRSC16937]
- Kc cell number, rep 1: 1.28e6
- Kc cell number, rep 2: 1.28e6
- S2R+ cell number, rep 1: 6.22e5
- S2R+ cell number, rep 2: 7.42e5

Alg14 (ALG14, UDP-N-acetylglucosaminyltransferase subunit) [DRSC19983]
- Kc cell number, rep 1: 1.50e6
- Kc cell number, rep 2: 1.52e6
- S2R+ cell number, rep 1: 1.08e6
- S2R+ cell number, rep 2: 1.15e6

beat-Va (beaten path Va) [DRSC14192]
- Kc cell number, rep 1: 1.78e6
- Kc cell number, rep 2: 1.81e6
- S2R+ cell number, rep 1: 1.31e6
- S2R+ cell number, rep 2: 1.42e6

Max [DRSC11218]
- Kc cell number, rep 1: 1.50e6
- Kc cell number, rep 2: 1.51e6
- S2R+ cell number, rep 1: 1.36e6
- S2R+ cell number, rep 2: 1.46e6

Awh (Arrowhead) [DRSC08140]
- Kc cell number, rep 1: 1.40e6
- Kc cell number, rep 2: 1.28e6
- S2R+ cell number, rep 1: 1.01e6
- S2R+ cell number, rep 2: 1.20e6

CG17294 [DRSC02596]
- Kc cell number, rep 1: 1.40e6
- Kc cell number, rep 2: 1.43e6
- S2R+ cell number, rep 1: 5.60e5
- S2R+ cell number, rep 2: 5.48e5

Hmt-1 (Heavy metal tolerance factor 1) [DRSC15555]
- Kc cell number, rep 1: 1.62e6
- Kc cell number, rep 2: 1.72e6
- S2R+ cell number, rep 1: 1.16e6
- S2R+ cell number, rep 2: 1.25e6

CG4612 [DRSC04478]
- Kc cell number, rep 1: 1.30e6
- Kc cell number, rep 2: 1.36e6
- S2R+ cell number, rep 1: 1.02e6
- S2R+ cell number, rep 2: 1.11e6

CG11406 [DRSC04010]
- Kc cell number, rep 1: 1.43e6
- Kc cell number, rep 2: 1.55e6
- S2R+ cell number, rep 1: 9.74e5
- S2R+ cell number, rep 2: 1.08e6

CG11406 [DRSC04108]
- Kc cell number, rep 1: 1.66e6
- Kc cell number, rep 2: 1.76e6
- S2R+ cell number, rep 1: 1.37e6
- S2R+ cell number, rep 2: 1.38e6

AP-2alpha (Adaptor Protein complex 2, alpha subunit) [DRSC00800]
- Kc cell number, rep 1: 1.58e6
- Kc cell number, rep 2: 1.59e6
- S2R+ cell number, rep 1: 1.15e6
- S2R+ cell number, rep 2: 1.29e6

pasi2 (pasiflora 2) [DRSC16380]
- Kc cell number, rep 1: 1.76e6
- Kc cell number, rep 2: 1.76e6
- S2R+ cell number, rep 1: 1.27e6
- S2R+ cell number, rep 2: 1.47e6

CG13658 [DRSC14659]
- Kc cell number, rep 1: 1.44e6
- Kc cell number, rep 2: 1.62e6
- S2R+ cell number, rep 1: 1.07e6
- S2R+ cell number, rep 2: 1.14e6

CG8349 [DRSC03083]
- Kc cell number, rep 1: 1.56e6
- Kc cell number, rep 2: 1.52e6
- S2R+ cell number, rep 1: 1.19e6
- S2R+ cell number, rep 2: 1.27e6

CG15452 [DRSC20523]
- Kc cell number, rep 1: 1.46e6
- Kc cell number, rep 2: 1.50e6
- S2R+ cell number, rep 1: 1.06e6
- S2R+ cell number, rep 2: 1.16e6

CG32050 (retired record) [DRSC10173]
- Kc cell number, rep 1: 1.43e6
- Kc cell number, rep 2: 1.44e6
- S2R+ cell number, rep 1: 1.15e6
- S2R+ cell number, rep 2: 1.18e6

GV1 [DRSC08228]
- Kc cell number, rep 1: 1.26e6
- Kc cell number, rep 2: 1.42e6
- S2R+ cell number, rep 1: 1.14e6
- S2R+ cell number, rep 2: 1.23e6

CG15029 (retired record) [DRSC19610]
- Kc cell number, rep 1: 1.60e6
- Kc cell number, rep 2: 1.68e6
- S2R+ cell number, rep 1: 1.17e6
- S2R+ cell number, rep 2: 1.29e6

isoQC (iso Glutaminyl cyclase) [DRSC11790]
- Kc cell number, rep 1: 1.32e6
- Kc cell number, rep 2: 1.45e6
- S2R+ cell number, rep 1: 1.24e6
- S2R+ cell number, rep 2: 1.35e6

CG5039 [DRSC15703]
- Kc cell number, rep 1: 1.58e6
- Kc cell number, rep 2: 1.56e6
- S2R+ cell number, rep 1: 9.80e5
- S2R+ cell number, rep 2: 1.08e6

CAH13 (Carbonic anhydrase 13) [DRSC06128]
- Kc cell number, rep 1: 1.55e6
- Kc cell number, rep 2: 1.57e6
- S2R+ cell number, rep 1: 1.31e6
- S2R+ cell number, rep 2: 1.49e6

Already shown: entries from further up.
eIF1A (eukaryotic translation initiation factor 1A) [DRSC16937]
- Kc cell number, rep 1: 1.28e6
- Kc cell number, rep 2: 1.28e6
- S2R+ cell number, rep 1: 6.22e5
- S2R+ cell number, rep 2: 7.42e5

Alg14 (ALG14, UDP-N-acetylglucosaminyltransferase subunit) [DRSC19983]
- Kc cell number, rep 1: 1.50e6
- Kc cell number, rep 2: 1.52e6
- S2R+ cell number, rep 1: 1.08e6
- S2R+ cell number, rep 2: 1.15e6

beat-Va (beaten path Va) [DRSC14192]
- Kc cell number, rep 1: 1.78e6
- Kc cell number, rep 2: 1.81e6
- S2R+ cell number, rep 1: 1.31e6
- S2R+ cell number, rep 2: 1.42e6
